Measurements reported in patent US20110117113A1, “IMMUNOGLOBULIN SINGLE VARIABLE DOMAIN DIRECTED AGAINST HUMAN CXCR4 AND OTHER CELL ASSOCIATED PROTEINS AND METHODS TO GENERATE THEM” (priority 2009, published 2011).
Results are given in words; binding and its absence hold for the method and conditions named. Some results given as binding are weak or reduced against the parent protein; the word gives no strength.

Protein sequences, listed by entry. Tags and fused reporters are not part of them. Lines headed by an entry give the natural chain unless they say otherwise; changes in a name come on top.
UniProt P61073: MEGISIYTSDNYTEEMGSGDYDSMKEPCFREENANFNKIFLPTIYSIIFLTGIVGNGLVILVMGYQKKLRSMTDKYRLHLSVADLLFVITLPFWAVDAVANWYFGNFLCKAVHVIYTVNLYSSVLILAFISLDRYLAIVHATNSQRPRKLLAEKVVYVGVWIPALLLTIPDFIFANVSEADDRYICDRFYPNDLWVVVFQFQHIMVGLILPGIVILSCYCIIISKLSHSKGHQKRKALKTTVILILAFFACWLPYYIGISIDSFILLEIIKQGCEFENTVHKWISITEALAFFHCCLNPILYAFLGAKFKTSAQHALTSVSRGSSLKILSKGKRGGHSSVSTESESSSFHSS

Key:
[1] = biological target: CXCR4 (N119A) (human) (UniProt P61073); assay: competition with [125I]-CXCL12, membranes with CXCR4 (N119A); no plateau at 2 µM
[2] = biological target: wildtype human CXCR4 (pcDNA3.1-CXCR4, expressed in HEK293T) (human) (UniProt P61073); assay: periplasmic extract screen, [125I]-CXCL12 displacement, HEK293T-CXCR4 membranes
[3] = biological target: wildtype human CXCR4 (pcDNA3.1-CXCR4, expressed in HEK293T) (human) (UniProt P61073); assay: radioligand competition, HEK293T-CXCR4 membranes

Measured: binding

B1: Nanobody 238D4 (VHH)
VHH: EVQLMESGGGLVQAGGSLRLSCAASGRTFNNYAMGWFRRAPGKEREFVAAITRSGVRSGVSAIYGDSVKDRFTISRDNAKNTLYLQMNSLKPEDTAVYTCAASAIGSGALRRFEYDYSGQGTQVTVSS
binds: [1] | [2] | [3]
